Measurements: patent US20080171788A1, “Medicament For Irritable Bowel Syndrome” (priority 2005, published 2008)
Some of these results come from one statement about several compounds together.

By UniProt entry, the sequences of proteins in these tests, tags left out.
UniProt P14416, whole entry: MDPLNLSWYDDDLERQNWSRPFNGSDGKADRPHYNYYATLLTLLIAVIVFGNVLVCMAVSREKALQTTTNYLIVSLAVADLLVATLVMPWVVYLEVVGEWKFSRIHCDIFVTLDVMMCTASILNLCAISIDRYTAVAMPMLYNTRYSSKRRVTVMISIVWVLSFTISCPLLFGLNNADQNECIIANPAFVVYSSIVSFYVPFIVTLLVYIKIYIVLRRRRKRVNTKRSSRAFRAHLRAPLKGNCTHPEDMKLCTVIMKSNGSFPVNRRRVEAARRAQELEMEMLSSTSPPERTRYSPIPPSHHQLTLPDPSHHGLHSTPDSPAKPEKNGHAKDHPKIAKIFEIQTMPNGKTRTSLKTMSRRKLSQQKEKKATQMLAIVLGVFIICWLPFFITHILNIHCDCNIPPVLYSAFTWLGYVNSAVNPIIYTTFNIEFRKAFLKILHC

Assays:
Assay type in all cases: binding
α1 receptor = test: Affinity for other receptors: α1
M1 receptor = target: T1, M1 receptor (Homo sapiens, UniProt P11229); test: Affinity for other receptors: M1
T1 sequence (P11229 1-460): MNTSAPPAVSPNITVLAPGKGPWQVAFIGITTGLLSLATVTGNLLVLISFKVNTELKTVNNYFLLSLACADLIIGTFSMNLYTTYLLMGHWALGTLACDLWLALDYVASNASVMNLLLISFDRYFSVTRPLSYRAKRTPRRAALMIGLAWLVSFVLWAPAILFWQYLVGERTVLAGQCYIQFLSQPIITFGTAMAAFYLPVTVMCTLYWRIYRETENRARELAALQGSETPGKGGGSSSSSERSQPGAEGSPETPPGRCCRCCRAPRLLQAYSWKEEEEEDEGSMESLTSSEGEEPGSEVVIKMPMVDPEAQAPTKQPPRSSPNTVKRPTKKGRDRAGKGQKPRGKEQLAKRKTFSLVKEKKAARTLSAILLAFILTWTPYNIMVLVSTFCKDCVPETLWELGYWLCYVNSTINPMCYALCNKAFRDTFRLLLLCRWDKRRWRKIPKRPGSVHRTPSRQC

D2 receptor = D2 receptor (Homo sapiens, UniProt P14416); test: Affinity for other receptors: D2

Row | Compound | 5-HT2B and 5-HT7 receptor selectivity against α1 receptor (α1 receptor) | 5-HT2B and 5-HT7 receptor selectivity against M1 receptor (M1 receptor) | 5-HT2B and 5-HT7 receptor selectivity against D2 receptor (D2 receptor)
1 | CC1(O)c2cc(C(=O)N=C(N)N)ccc2-c2c(F)cccc21.Cl (centres unmarked) [Production Example 77] | ≥ 100 times | ≥ 100 times | –
2 | Cl.NC(N)=NC(=O)c1ccc2c(c1)C1(SCCS1)c1cccc(F)c1-2 [Production Example 85] | ≥ 100 times | ≥ 100 times | ≥ 100 times
